# This is one part of the list. The data scatter; read single values as rough.
# Sequences of proteins named here, by UniProt entry; tags and fusion partners are left off. A change or cut given only in a name is not applied to a line headed by its entry. Residues count along the entry.
# UniProt Q8TCT8, 492-520: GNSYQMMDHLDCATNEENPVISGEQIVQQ
# UniProt O76094: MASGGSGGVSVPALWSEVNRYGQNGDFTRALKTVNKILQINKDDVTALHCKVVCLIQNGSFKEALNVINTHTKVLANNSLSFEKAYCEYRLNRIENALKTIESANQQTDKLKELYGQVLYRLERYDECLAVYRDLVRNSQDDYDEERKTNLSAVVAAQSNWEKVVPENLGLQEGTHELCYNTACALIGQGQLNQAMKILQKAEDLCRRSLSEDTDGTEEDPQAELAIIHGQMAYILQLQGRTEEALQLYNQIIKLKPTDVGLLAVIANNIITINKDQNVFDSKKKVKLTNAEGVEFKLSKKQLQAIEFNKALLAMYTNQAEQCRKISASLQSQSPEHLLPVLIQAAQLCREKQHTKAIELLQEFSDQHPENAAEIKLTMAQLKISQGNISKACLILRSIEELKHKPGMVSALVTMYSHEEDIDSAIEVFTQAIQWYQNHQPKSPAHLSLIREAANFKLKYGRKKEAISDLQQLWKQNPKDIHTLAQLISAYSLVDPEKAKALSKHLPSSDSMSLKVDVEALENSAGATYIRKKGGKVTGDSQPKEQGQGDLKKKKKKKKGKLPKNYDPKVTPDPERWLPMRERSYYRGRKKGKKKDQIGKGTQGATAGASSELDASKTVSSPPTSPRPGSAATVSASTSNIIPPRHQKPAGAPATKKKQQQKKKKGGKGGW
# UniProt O94804: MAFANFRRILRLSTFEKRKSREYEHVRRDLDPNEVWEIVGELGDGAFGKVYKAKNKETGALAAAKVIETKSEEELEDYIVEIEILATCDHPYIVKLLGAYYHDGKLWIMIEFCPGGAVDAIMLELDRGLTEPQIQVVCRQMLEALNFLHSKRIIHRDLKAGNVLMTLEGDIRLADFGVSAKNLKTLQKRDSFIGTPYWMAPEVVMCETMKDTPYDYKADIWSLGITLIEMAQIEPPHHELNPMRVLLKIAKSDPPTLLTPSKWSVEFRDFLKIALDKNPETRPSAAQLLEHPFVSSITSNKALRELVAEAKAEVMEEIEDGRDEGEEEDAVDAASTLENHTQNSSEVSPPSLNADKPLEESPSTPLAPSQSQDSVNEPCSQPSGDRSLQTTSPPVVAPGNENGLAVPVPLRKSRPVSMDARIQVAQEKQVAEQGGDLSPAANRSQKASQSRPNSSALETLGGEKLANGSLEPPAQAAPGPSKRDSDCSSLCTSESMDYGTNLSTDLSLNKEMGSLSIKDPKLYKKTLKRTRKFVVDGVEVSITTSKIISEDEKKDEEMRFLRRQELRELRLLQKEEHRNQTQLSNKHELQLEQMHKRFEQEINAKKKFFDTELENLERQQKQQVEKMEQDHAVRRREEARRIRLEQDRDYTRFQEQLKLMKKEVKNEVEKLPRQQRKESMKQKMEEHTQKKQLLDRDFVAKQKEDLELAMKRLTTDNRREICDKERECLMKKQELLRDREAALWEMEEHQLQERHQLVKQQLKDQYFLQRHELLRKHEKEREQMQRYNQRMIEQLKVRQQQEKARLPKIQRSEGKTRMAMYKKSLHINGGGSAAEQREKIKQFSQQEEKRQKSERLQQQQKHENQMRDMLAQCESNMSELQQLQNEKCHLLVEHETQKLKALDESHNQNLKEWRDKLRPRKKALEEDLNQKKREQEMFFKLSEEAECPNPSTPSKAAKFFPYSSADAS
# UniProt Q9Y5M8: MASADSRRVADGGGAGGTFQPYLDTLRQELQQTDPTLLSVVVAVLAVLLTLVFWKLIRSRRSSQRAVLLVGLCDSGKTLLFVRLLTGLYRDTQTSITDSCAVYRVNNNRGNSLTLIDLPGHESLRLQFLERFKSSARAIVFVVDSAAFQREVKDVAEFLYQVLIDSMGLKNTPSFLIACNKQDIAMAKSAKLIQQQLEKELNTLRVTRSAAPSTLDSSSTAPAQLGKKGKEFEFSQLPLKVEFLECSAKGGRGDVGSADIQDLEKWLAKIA
# UniProt O15269: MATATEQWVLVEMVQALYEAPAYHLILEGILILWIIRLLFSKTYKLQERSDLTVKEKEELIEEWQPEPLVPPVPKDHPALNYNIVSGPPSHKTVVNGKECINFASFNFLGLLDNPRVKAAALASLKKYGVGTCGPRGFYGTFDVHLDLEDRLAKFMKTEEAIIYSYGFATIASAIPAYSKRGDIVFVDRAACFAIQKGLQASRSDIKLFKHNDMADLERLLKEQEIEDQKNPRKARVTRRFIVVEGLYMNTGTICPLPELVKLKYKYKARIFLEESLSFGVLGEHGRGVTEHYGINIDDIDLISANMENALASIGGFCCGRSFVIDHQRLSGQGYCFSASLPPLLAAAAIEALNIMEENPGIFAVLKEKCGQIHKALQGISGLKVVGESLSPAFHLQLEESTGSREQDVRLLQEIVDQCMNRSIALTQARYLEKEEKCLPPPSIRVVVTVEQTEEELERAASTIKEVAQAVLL
# UniProt Q92797: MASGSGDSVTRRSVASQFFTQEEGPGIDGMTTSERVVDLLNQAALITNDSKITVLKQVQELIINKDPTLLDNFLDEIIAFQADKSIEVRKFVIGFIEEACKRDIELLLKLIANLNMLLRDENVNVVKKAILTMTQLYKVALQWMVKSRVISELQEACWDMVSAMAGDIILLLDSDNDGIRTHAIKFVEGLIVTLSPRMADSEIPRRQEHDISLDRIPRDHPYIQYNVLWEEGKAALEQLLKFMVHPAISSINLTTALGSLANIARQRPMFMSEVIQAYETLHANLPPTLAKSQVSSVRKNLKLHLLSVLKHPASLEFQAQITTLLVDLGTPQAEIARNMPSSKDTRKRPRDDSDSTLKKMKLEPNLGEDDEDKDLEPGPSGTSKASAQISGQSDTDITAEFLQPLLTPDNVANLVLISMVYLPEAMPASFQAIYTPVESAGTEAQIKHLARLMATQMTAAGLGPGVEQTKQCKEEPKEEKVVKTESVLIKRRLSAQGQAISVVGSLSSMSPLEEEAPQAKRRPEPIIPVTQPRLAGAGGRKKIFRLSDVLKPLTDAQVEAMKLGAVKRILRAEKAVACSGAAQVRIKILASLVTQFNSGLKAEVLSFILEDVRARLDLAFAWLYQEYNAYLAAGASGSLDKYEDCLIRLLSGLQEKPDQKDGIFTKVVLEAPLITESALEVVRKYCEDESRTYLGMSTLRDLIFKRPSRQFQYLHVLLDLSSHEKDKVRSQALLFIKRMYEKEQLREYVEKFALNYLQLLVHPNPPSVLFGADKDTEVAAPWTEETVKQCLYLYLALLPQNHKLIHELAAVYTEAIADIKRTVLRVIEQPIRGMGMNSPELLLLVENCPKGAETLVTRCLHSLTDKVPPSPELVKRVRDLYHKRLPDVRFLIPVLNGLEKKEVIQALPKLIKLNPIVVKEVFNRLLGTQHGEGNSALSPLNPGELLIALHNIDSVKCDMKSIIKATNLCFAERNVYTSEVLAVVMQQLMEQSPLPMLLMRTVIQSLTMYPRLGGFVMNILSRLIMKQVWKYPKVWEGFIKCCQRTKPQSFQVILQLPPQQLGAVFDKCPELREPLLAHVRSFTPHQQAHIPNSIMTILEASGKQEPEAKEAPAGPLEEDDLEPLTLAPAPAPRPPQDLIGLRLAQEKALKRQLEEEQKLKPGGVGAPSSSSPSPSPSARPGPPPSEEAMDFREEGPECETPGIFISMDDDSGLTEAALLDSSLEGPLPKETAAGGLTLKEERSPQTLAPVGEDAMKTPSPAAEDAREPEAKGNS
# UniProt Q9Y2D8: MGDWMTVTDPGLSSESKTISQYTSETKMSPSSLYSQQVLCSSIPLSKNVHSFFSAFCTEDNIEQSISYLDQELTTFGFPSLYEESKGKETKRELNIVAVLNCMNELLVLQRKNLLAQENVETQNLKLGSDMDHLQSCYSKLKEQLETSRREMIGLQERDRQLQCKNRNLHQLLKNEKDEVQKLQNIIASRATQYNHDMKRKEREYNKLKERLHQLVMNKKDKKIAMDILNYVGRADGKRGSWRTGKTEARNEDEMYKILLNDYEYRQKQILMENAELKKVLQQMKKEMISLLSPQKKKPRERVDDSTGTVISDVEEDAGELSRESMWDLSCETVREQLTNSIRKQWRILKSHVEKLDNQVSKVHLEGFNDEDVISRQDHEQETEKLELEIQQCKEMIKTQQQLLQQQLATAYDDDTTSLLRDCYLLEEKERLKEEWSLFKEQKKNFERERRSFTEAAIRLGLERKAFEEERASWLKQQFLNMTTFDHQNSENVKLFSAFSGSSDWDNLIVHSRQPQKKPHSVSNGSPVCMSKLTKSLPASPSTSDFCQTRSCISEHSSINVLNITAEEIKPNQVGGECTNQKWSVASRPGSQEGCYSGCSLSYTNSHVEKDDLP
# UniProt O15270: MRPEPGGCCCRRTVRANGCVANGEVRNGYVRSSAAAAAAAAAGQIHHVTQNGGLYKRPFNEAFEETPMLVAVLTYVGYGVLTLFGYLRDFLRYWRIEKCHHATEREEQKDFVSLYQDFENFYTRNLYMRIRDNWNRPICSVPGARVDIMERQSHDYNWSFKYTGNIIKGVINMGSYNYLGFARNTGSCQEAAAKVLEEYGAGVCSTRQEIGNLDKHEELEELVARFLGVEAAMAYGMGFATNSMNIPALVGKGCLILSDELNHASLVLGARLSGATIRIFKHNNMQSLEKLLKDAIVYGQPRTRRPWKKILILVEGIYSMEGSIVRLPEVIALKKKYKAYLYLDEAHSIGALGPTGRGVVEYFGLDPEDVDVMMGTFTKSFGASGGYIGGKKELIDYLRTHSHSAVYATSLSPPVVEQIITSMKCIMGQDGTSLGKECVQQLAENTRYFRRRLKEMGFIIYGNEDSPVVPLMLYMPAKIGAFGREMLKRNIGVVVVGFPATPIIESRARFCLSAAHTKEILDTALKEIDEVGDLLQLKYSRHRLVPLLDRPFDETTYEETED
# UniProt Q5T280: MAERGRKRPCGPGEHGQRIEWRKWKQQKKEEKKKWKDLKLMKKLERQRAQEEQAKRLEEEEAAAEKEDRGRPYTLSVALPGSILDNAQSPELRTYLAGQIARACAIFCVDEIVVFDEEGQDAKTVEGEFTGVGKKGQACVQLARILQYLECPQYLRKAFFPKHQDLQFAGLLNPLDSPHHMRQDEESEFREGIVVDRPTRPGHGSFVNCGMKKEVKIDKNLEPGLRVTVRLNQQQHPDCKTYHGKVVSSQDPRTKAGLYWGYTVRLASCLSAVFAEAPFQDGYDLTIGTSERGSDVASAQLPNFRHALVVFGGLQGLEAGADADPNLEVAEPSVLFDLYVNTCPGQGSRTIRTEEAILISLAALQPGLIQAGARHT
# UniProt Q8IX01: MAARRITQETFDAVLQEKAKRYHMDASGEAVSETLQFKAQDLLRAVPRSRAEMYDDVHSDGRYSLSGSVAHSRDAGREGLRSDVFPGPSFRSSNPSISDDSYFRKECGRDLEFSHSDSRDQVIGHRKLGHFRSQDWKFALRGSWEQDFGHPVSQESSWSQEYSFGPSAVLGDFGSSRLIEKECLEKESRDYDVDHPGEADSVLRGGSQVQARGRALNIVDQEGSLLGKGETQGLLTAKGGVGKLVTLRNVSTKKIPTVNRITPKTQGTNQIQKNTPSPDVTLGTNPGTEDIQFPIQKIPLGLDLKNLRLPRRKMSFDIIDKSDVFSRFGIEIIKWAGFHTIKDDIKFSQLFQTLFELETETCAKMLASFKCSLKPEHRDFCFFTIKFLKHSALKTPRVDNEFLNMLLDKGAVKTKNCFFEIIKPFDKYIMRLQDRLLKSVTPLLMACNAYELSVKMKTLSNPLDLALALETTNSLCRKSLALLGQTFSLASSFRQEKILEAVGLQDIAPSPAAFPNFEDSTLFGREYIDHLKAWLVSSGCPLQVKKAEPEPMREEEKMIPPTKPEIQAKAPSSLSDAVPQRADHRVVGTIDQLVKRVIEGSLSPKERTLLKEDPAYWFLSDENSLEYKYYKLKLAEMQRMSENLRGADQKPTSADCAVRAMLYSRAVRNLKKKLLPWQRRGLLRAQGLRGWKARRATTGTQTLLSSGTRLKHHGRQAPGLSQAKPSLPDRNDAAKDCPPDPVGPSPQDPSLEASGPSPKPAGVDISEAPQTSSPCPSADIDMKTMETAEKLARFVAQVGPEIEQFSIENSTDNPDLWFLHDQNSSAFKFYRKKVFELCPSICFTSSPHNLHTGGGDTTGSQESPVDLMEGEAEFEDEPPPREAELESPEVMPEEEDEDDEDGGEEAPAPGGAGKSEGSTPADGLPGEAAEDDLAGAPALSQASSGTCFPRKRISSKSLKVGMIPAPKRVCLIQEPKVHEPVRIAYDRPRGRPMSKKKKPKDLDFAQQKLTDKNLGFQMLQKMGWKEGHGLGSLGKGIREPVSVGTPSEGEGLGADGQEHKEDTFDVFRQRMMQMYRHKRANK
# Compound: ClCC(=O)N[C@@H]1CCCc2ccccc12
# Experiment: log2 mean competition ratio of IA-DTB cysteine labelling (DMSO/compound) (log2 ratio); higher = stronger cysteine engagement by compound
# Conditions: 50 µM; treatment time: 4 h; cell line lysate: HEK293T
# Protocol: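 IA-DTB competitive cysteine chemoproteomics in HEK293T RIPA lysate. Lysates were treated with compound 29 or 30 at 50 or 200 µM for 4 h, then IA-DTB (500 µM, 1 h), trypsin-digested, NeutrAvidin-enriched and analysed by diaPASEF. Competition ratio = intensity DMSO / intensity compound (n=4 treated, n=64 DMSO); binding: mean log2 CR ≥ 1 and p ≤ 0.05 plus QC filters. Target is the cysteine site.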
row,Target,log2 mean competition ratio
1,SPPL2A C503 (UniProt Q8TCT8),0.124
2,SQSTM1 C331 (UniProt Q13501),-0.0555
3,SRP72 C128 (UniProt O76094),0.144
4,SWT1 C127,-0.282
5,SYNE2 C1151 (UniProt Q8WXH0),-0.225
6,SYNE2 C2520 (UniProt Q8WXH0),0.181
7,SUPT20H C48 (UniProt Q8NEM7),-0.217
8,SYNE2 C2212 (UniProt Q8WXH0),-0.0435
9,SREBF2 C832 (UniProt Q12772),-0.227
10,STK10 C722 (UniProt O94804),0.339
11,SRPRB C179 (UniProt Q9Y5M8),0.412
12,SPTLC1 C192 (UniProt O15269),0.111
13,SRRM2 C956 (UniProt Q9UQ35),0.158
14,SYMPK C969 (UniProt Q92797),-0.0486
15,SSX2IP C331 (UniProt Q9Y2D8),0.00817
16,STXBP1 C552 (UniProt P61764),0.399
17,SPATA33 C101 (UniProt Q96N06),-0.213
18,SPTLC2 C19 (UniProt O15270),-0.0889
19,SPOUT1 C239 (UniProt Q5T280),-0.0658
20,SUGP2 C656 (UniProt Q8IX01),0.102

# Same assay, conditions: 200 µM; treatment time: 4 h; cell line lysate: HEK293T
row,Target,log2 mean competition ratio
1,SPPL2A C503 (UniProt Q8TCT8),-0.0627
2,SQSTM1 C331 (UniProt Q13501),0.117
3,SRP72 C128 (UniProt O76094),0.0149
4,SWT1 C127,-0.0291
5,SYNE2 C1151 (UniProt Q8WXH0),0.0546
6,SYNE2 C2520 (UniProt Q8WXH0),0.232
7,SUPT20H C48 (UniProt Q8NEM7),0.157
8,SYNE2 C2212 (UniProt Q8WXH0),-0.0517
9,SREBF2 C832 (UniProt Q12772),0.915
10,STK10 C722 (UniProt O94804),-0.201
11,SRPRB C179 (UniProt Q9Y5M8),0.122
12,SPTLC1 C192 (UniProt O15269),-0.0182
13,SRRM2 C956 (UniProt Q9UQ35),0.00355
14,SYMPK C969 (UniProt Q92797),-0.0756
15,SSX2IP C331 (UniProt Q9Y2D8),0.0495
16,STXBP1 C552 (UniProt P61764),-0.0917
17,SPATA33 C101 (UniProt Q96N06),-0.129
18,SPTLC2 C19 (UniProt O15270),0.248
19,SPOUT1 C239 (UniProt Q5T280),0.208
20,SUGP2 C656 (UniProt Q8IX01),0.694

# Source: the supplement of paper PMC11732987, “Enantioselective OTUD7B fragment discovery through chemoproteomics screening and high-throughput optimisation” (Communications Chemistry, 2025)
